At least one compound was matched to its structure with a doubt left.
Tested on: GLUT1
Assay: GLUT1 expression in T cell based on type of PI3K inhibitor
Source text: More specifically, referring to (a) of FIG. 12, the results of GLUT1 expression according to the type of PI3K inhibitor in the helper T cell are shown. In this connection, the PI3K inhibitor may include BKM 120 that may inhibit all subtypes, CAL-101 that may inhibit only p110δ, IPI-145 capable of inhibiting p110γ and P110δ, BYLT719 capable of inhibiting only p110α, and TGX-211 capable of inhibiting only p110β.
Referring to (b) of FIG. 12, the results of GLUT1 expression according to the type of PI3K inhibitor in cytotoxic T cells are shown.

Compound: C[C@H](Nc1ncnc2nc[nH]c12)c1cc2cccc(Cl)c2c(=O)n1-c1ccccc1 [IPI-145, duvelisib]
- GLUT1 expression level versus BYLT719 and TGX-211 inhibitors (cytotoxic T cells): higher GLUT1 expression levels
- GLUT1 expression level versus BYLT719 and TGX-211 inhibitors (helper T cell): higher GLUT1 expression levels

Source: US20210292710A1, “METHOD FOR ENHANCING IMMUNE FUNCTION OF IMMUNE CELL AND IMMUNE CELL LINE PRODUCED USING THE SAME” (INDUSTRY-ACADEMIC COOPERATION FOUNDATION, YONSEI UNIVERSITY, priority 2020, published 2021)
